Assay results reported in the supplement of paper PMC3334620.
The full ranking holds about 33,000 sequences; the median of “E-score (-0.5 to 0.5)” is about -0.0014, and the highest 2% start at about 0.25. This is one part of the list.

molecular target: T1, Cad1 (UniProt P24813); test: PBM E-score (8-mer binding enrichment) (E-score (-0.5 to 0.5)); higher = stronger / more preferred TF binding; conditions: protein concentration: 100 nM; construct: GST-full length
T1 sequence: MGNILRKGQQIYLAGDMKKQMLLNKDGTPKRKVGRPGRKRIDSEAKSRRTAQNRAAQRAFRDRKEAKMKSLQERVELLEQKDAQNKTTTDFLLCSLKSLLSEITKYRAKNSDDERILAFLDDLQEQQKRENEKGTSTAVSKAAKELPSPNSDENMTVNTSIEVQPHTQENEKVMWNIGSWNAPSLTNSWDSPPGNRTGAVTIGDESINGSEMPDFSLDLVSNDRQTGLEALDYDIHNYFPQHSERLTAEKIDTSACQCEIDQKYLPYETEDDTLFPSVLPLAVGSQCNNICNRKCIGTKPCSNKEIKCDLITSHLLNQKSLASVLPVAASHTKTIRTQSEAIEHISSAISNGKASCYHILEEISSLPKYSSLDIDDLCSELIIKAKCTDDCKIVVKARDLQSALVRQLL
Method in brief: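 Yeast transcription factors carrying a GST tag, as full-length proteins or DNA-binding domains, were produced by PURExpress in vitro transcription/translation. About 100-200 nM protein was applied to universal all-10-mer Agilent arrays, double-stranded by primer extension on fresh or once-stripped slides. Bound protein was detected with fluorescent anti-GST, and scans were normalised with masliner. The Universal PBM Analysis Suite gave each ungapped eight-base word, pooled with its reverse complement, an E-score, a modified Wilcoxon-Mann-Whitney statistic.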

Sequence | PBM E-score
GGGGTAGA | -0.0967
GCTCTTAA | 0.00175
CCTGTGAA | -0.0104
GTATGGAA | -0.144
GATAGTCA | -0.0447
AATAGCTA | 0.0621
CCACCCAG | -0.0547
AACTACAC | 0.123
CCGCCAAA | 0.141
TACACAAA | 0.229
GGGCTCCA | -0.211
CATATTCC | -0.178
CAGGTACA | -0.0611
ATCTATAA | 0.086
AAAGCATA | -0.0199
GAACCATC | 0.104
CACGCGGA | 0.189
CCCTGACG | -0.0383
CCCGGGGC | -0.332
ATGTACAC | 0.142
AACTCAGT | -0.0318
GCGGATAA | 0.0679
GACCAAAA | 0.177
CTATATCA | 0.181
AAATTCGG | 0.227

Sequence | PBM E-score
GGTGGACA | -0.111
ATAGAGTG | -0.0899
CTTGATTA | 0.106
ATGACCAG | 0.00697
AGATGAAC | 0.177
ACGTTCGA | -0.0227
AAAATGTA | -0.138
CTTTCATA | 0.046
AAGCCTCC | -0.128
GTGACAAC | 0.0552
CTGTGTAA | 0.157
TAGGGAAA | -0.014
AATCATAT | 0.14
CAGGATAC | -0.0938
GAAAGACC | -0.175
CGACTCTC | -0.183
ACGGTTCG | 0.0536
GCTAGAGA | 0.0132
CCGGCGCC | 0.0915
AAAATAGG | 0.0319
GAGATGAA | -0.0368
TATCGAGA | 0.0385
AGAGCAGG | 0.0535
GGTAGCCA | -0.0237
CCCAGGGG | -0.389

Sequence | PBM E-score
ACAAGACT | -0.0691
AAGTTGCG | 0.0178
AATGTTGC | -0.0914
ATAGCAAT | 0.154
CGGGGTTA | -0.0249
GGTTGCGA | 0.047
AGATTGGC | -0.252
AAGGCCGC | 0.0997
CCCGCTCC | -0.37
CAGGCACG | -0.0731
GCGTTAGC | 0.0751
CACTTTCC | 0.135
ACCCGAAG | -0.0741
TGTGTAAA | 0.156
ACCGTAGT | -0.123
ATCATAGG | -0.0111
AACAATCA | 0.219
ATGAATTC | 0.15
AAACCCAA | -0.0676
CAATCACA | 0.0376
GTCTGGCA | -0.169
AACTTAGG | 0.0392
GACGTTAA | 0.245
TCAACTAA | 0.0767
ACGATAGG | -0.167

Individual results from the results shown.
PBM E-score with AACTTAGG reads 0.0392
PBM E-score with CTTTCATA reads 0.046
PBM E-score with CACTTTCC reads 0.135
PBM E-score with GGGGTAGA reads -0.0967
PBM E-score with GTCTGGCA reads -0.169

(list continues)

Sequence | PBM E-score
AGAGTAAC | -0.086
CCATACAA | -0.131
GTTCAGGA | -0.0605
AAAAATCA | 0.124
CCGAAAAA | 0.152
TGTTCAAA | 0.0795
AGGTGTCA | 0.127
GGGTGCGA | -0.203
CTTAGGAA | 0.136
GAGACGAC | -0.0482
CAAATTAC | -0.0627
GTTGTGAA | 0.0868
ACCAAGTA | 0.00548
TCCTCTCA | -0.0627
GATGGAAA | 0.00903
ACGGGAAT | -0.153
CTATTGTC | -0.145
ATTTACTA | 0.113
GTATATGA | 0.118
ACGGCAGG | -0.265
CTCTCCCA | -0.182
GTTGGAGA | -0.0985
CCGGATAA | 0.154
GGGTTCAA | 0.0637
ATTTTTCG | 0.135

Three entries drawn at random from the list so far, as already listed:
Sequence | PBM E-score
GTTGTGAA | 0.0868
CAAATTAC | -0.0627
GAGACGAC | -0.0482

The list goes on:

Sequence | PBM E-score
GATGGGGC | -0.122
ACCCGCGC | 0.256
CGACCTAC | -0.126
CCAAACTC | 0.0916
AACGCTCG | 0.132
CCGTACAG | -0.0293
AAAATCGC | 0.12
CGGGGAAC | 0.0676
GGCCTACA | 0.0721
GCCCACCC | 0.119
CTGGGGTA | -0.12
CTGTTCGC | 0.13
GTTACTAA | 0.374
ATGGCCAT | 0.252
AATCGCCT | 0.106
ATACCGTA | -0.0149
CTTAGATA | 0.169
GGGTCTAA | -0.0221
GTCGGGTA | 0.0141
AAGGGCTA | -0.121
CGAGGATC | 0.174
GGGTGACC | -0.0743
CCTGGGAG | -0.196
GCGATGCA | -0.252
GAAGATCA | 0.00058

Sequence | PBM E-score
AACGTTAC | 0.196
AACTATAC | -0.0398
GAGAGCCA | -0.228
CCGGGTTC | -0.0103
TATCCGAA | 0.139
CCAGGCTC | -0.0443
GCCAGGTA | 0.00087
AAGATCAC | 0.0436
CGAACAGA | 0.0274
ACCGACAT | 0.0684
GTCGCGAA | 0.0594
ACCAAACC | 0.00963
CCGGCAAG | -0.0274
GTCTATGA | 0.142
AAATATTG | 0.249
AATGATTA | 0.249
AAGGATCC | -0.073
CGTCTCGA | 0.0733
GGCGACAC | 0.0142
CACCGTTA | 0.0887
AGGCTAAA | -0.0341
AAGGATGT | -0.11
GGCGGGTA | -0.0629
AGTTCATC | 0.0446
CAAAACAA | -0.00589

Sequence | PBM E-score
AGGCGCTA | 0.146
CCGCCCAC | -0.0884
CTTGCACC | -0.0284
ACGCACAG | 0.0754
CACTCATG | -0.0327
GACATTCC | -0.0262
AATCGCAG | 0.111
AATATCGG | 0.183
GTTGCCAA | 0.0425
CGGTCTGA | 0.00188
AAGCAGCA | -0.13
ATTCTGGA | 0.0362
CGAGGAAC | 0.146
AGAAATGC | 0.0228
ACTATTAA | 0.123
ACGCGATA | 0.156
CAGTTGGC | 0.00206
GGCCATTA | 0.139
CGTGTACC | -0.135
CACATACG | -0.113
AATGGAGT | -0.0299
ACCTAGCT | -0.111
ATGTCCTG | 0.158
AAAATCAT | 0.0969
GACCACCA | -0.0541

Sequence | PBM E-score
ATTGGATG | -0.0526
AGGTCTTC | -0.211
GATCTTTA | -0.013
AAACCCGG | 0.0562
GTGCCCCA | -0.152
AATTTCTA | 0.184
CAGATAAA | 0.0231
GGGCGATA | -0.196
TCAGACAA | 0.13
AACTGGCA | 0.0196
CCGCATGC | 0.0682
CCCAGCAG | -0.0553
CGGTACCC | -0.205
AACAATGG | 0.0149
GCGAATAC | -0.028
AACTCAAT | 0.0311
CCAGGCCA | -0.0845
AATGTTCG | 0.117
TAGACAAA | -0.0741
CTGCATAC | 0.0671
ATACTTTA | 0.0976
ATCTCTAG | -0.0232
CCGTCCCC | -0.263
AAACGACT | -0.0235
CTATCATA | 0.148

Sequence | PBM E-score
CTGTTCAA | -0.00531
CACGCTTC | -0.213
CCCATTTC | -0.289
GTGCGCTA | 0.0718
AAATAGCT | -0.0849
CAAAGGCA | 0.0792
TCGTCCAA | 0.0812
ATGGGAAT | -0.109
GCATGCCA | -0.0155
CAGCATCA | 0.11
GCCATTTA | -0.165
TATTTTGA | 0.15
ACTATACT | 0.131
TTCCCCAA | -0.0816
CAAGTTAA | 0.0668
ATACGGTG | 0.0409
AACTACCT | 0.0789
GCGCAACA | 0.0472
CCGGTAAC | 0.0491
